Laboratory results reported in article doi:10.1101/580043.
No constants are given. Whether binding was seen depends on the method and setting. In cells and extracts the contact can be indirect. Here binding means that the protein was enriched with, or labelled near, the bait; the list need not be complete.

Molecular target: T1, PRG-1, endogenous, immunoprecipitated from wild-type N2 animals (C. elegans (endogenous in N2 animals)) (UniProt P90786)
T1 sequence: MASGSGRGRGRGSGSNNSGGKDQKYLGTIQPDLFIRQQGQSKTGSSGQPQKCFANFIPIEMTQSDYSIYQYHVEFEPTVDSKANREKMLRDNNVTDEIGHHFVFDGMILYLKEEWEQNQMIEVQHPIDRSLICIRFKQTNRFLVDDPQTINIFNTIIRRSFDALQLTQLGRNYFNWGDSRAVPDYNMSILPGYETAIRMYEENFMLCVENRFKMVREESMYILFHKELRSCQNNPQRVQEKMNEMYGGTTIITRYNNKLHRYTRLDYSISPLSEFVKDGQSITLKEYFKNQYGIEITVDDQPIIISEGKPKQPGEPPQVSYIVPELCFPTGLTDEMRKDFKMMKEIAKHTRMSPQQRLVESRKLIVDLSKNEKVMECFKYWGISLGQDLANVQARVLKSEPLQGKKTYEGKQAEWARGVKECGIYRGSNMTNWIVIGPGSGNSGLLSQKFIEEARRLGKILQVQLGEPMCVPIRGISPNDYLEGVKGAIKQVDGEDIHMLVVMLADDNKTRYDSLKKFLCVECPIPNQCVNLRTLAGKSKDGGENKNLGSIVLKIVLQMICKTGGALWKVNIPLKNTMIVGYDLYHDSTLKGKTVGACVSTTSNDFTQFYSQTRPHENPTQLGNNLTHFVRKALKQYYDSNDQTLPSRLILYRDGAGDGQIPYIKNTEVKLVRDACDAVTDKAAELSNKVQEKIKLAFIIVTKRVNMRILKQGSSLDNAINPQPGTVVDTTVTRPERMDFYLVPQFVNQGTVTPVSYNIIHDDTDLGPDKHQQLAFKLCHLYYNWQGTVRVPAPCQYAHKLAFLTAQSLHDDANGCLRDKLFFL
Experiment: affinity purification with mass spectrometry

binding: binds
B1: DEPS-1, endogenous, in lysate of wild-type N2 animals (protein, UniProt Q9N303 1-619)
chain: MSERQSKYFDYQGIVISSTGQDNQDSETDLVYLIQAHGKAAPKNIMYGVSKCAFVPTNLERNFDNIEEAKNLERRSKIPLKFGEVILWNESDCDHDKRIILHIKREKPIYEASSSRNGLILKVGGVIQPTSTTSFWTPLCTVTMPETEATRAEPDVWLYAWIRFETTMKSGLDPFNMTATFESFDSCDPSDQARVCEAPWNAGSPDSKFGVWRPDPKPADSDDEIDIEPREGWHLPEDKWAEVIKMQLGLYVGERLLICKELSQFDFIIPLQKPFSRGTDKTLIYPAVGEYFHFSAIWSMQHNGFLIYELQPVPLLRQHVTSVNGNLLTRVVPASIRGLFVDKEGTLGLIDDPHHLLSFFEFHPAGYEFLKAMAEVRAVRTSENKSVRYRIVRTSGMSIFENWLRDTQFVVGPVKGIRINEDTVICAKHPNVYFKIPNNLKEGIPIGGGVQFVGKRQAGVDSEIMITECSPCPAFTCKNYSVSGDTRLFQVYLKPNCDHEQLAESDSMGFVDFRELETPCRGKFLAWVRESITVNDCRRAATIMEVCSTAICPPLIAMSANSSRATSARTTPAGSSIGSRSSIQSRASAATSVSSNRFVGPSSRRTPSGTPQSSTSSRV
